These results are taken from paper PMC4447949, “Structures of the Ets Protein DNA-binding Domains of Transcription Factors Etv1, Etv4, Etv5, and Fev” (The Journal of Biological Chemistry, 2015).

Results are given in words; binding and its absence hold for the method and conditions named.

Holding throughout (assay): condition: only purified under reducing conditions (0.5 mM TCEP); SEC; protein purified under reducing conditions (0.5 mM TCEP); Superdex S75 or 200, 20 mM HEPES pH 7.5, 500 mM NaCl, 5% glycerol; both purified
For assay [1], the target named is Etv5 Ets domain (amino acids 365-462) (human) (UniProt P41161).
In assay [2] the target is Etv1 wild-type Ets domain (amino acids 326-429) (human) (UniProt P50549).
In assay [3] the target is Etv4 Ets domain (amino acids 338-470) (human) (UniProt P43268).

B1: Etv5 Ets domain (amino acids 365-462) (domain or fragment, human, UniProt P41161 365-462, looked up)
chain: RGSLQLWQFLVTLLDDPANAHFIAWTGRGMEFKLIEPEEVARRWGIQKNRPAMNYDKLSRSLRYYYEKGIMQKVAGERYVYKFVCDPDALFSMAFPDN
notes: Etv5 (ERM), Ets domain construct, amino acids 365-462; TEV cleavage leaves SM before the insert; The limits are those told for the crystallisation construct; also called ERM; Etv5 WT; source: E. coli BL21 (DE3) Rosetta-R3, purified with TCEP (Ni-IDA, TEV cleavage, SEC); E. coli Rosetta-gami 2, purified without TCEP; not shown: His6, N-terminal, cleaved
For the molecule B1, the binding entry in assay [1] was “no binding”.

B2: Etv1 wild-type Ets domain (amino acids 326-429) (domain or fragment, human, UniProt P50549 326-429, looked up)
chain: GPTYQRRGSLQLWQFLVALLDDPSNSHFIAWTGRGMEFKLIEPEEVARRWGIQKNRPAMNYDKLSRSLRYYYEKGIMQKVAGERYVYKFVCDPEALFSMAFPDN
notes: Same limits as the crystallised Y329S-P427S construct (PDB 4AVP, 4BNC); TEV cleavage leaves SM before the insert; From Rosetta-gami 2 under nonreducing conditions it is a disulfide-linked dimer; also called WT; WT dimer; source: E. coli BL21 (DE3) Rosetta-R3, purified with TCEP (Ni-IDA, TEV cleavage, SEC); E. coli Rosetta-gami 2, purified without TCEP; not shown: His6, N-terminal, cleaved
For the molecule B2, in assay [2], the binding result was “no binding”.

B3: Etv4 Ets domain (amino acids 338-470) (domain or fragment, human, UniProt P43268 338-470, looked up)
chain: RGALQLWQFLVALLDDPTNAHFIAWTGRGMEFKLIEPEEVARLWGIQKNRPAMNYDKLSRSLRYYYEKGIMQKVAGERYVYKFVCEPEALFSLAFPDNQRPALKAEFDRPVSEEDTVPLSHLDESPAYLPELA
notes: Etv4 (PEA3), Ets domain construct, amino acids 338-470; TEV cleavage leaves SM before the insert; The limits are those told for the crystallised construct; also called PEA3; Etv4 WT; source: E. coli BL21 (DE3) Rosetta-R3, purified with TCEP (Ni-IDA, TEV cleavage, SEC); E. coli Rosetta-gami 2, purified without TCEP; not shown: His6, N-terminal, cleaved
With B3, the binding result in assay [3] was “no binding”.
